# Measured values reported in US9783796B2, “Amidase, gene for the same, vector, transformant, and method for production of optically active carboxylic acid amide and optically active carboxylic acid by using any one of those items” (KANEKA CORPORATION, priority 2007, dated 2017).
# Test: Optimum pH, optimum temperature and thermal stability of the amidase reaction of purified HCS
# Type: biochemical
# Settings: N-benzylnipecotamide as substrate; for Optimum reaction pH: 1 hour at 30° C.; for Optimum reaction temperature: 1 hour at each temperature
# Experimental: The Optimum pH and optimum temperature of an amidase reaction of the purified enzyme obtained in Example 1, and thermal stability of the enzyme were determined by quantifying N-benzylnipecotic acid produced in the hydrolysis reaction using N-benzylnipecotamide as a substrate, by HPLC. For determination of the optimum pH, the reaction was allowed to proceed at each pH for 1 hour at 30° C., and stopped by addition of acetonitrile. The resultant solution was analyzed under the high speed liquid chromatography analysis conditions A described in Example 1. For determination of the optimum temperature, the reaction was allowed to proceed at each temperature for 1 hour, and stopped by addition of acetonitrile. The resultant solution was analyzed under the high speed liquid chromatography analysis conditions A described in Example 1. For determining the thermal stability, after incubation at each temperature for 30 minutes, the reaction was allowed to proceed for 1 hour, and stopped by addition of acetonitrile. The resultant solution was analyzed under the high speed liquid chromatography analysis conditions A described in Example 1.
molecule,measurement,setting,value
"HCS: amidase purified from Cupriavidus sp. KNK-J915 strain (FERM BP-10739), amino acid sequence SEQ ID NO:1 (protein, listed as Cupriavidus sp.) MPTDIQTLQTRLHDGAVSRADVIAQAAQHAQQPDAHAVFLHTTFDTAAQVAKAADAACLAGKPLHPLAGLPVSVKDLFNIAGEASRAGSPVRSDALAATADATVVRRLRESGAALVGRTNMTEFAFSGVGINPHFGTPVNPADKQVARIPGGSSSGAAVSVALGLAVAGLGSDTGGSIRIPAALCGLTGFKPTARRVPLDGAFPLSYTLDTACAMARTVQDCVLVDSVIADQAVLPVIKGAAGIRLAIPRQVLLDDLDDTVARAFDRALGRLSAAGVQIEHIDLPELAELATINASGGFTAAEAHAIHRHVLATRREQYDPRVASRIDRGAAMSAADYVDLMRARLDWITRVAARLEGFDAVACPTVPMVAPPIAPLVADDALFFHTNALLLRNTSAFNFLDGCSISLPCHQPDELPVGLMLSHGALRDAQLLGTAIALESIVKPAA",Optimum reaction pH,,pH 8.0 to 9.0
same,Optimum reaction pH,listed as SEQ ID NO:1,8.0 to 9.0
same,Optimum reaction temperature,,50 °C
same,Optimum reaction temperature,listed as SEQ ID NO:1,50 °C
